Article PMC8282249
These are yes or no findings as the source states them, for the method shown. In cells and extracts the contact can be indirect. Some entries that bind do so weakly or less than the wild type.

Chains of the proteins cited; added tags and fusions are not shown.
UniProt P15976: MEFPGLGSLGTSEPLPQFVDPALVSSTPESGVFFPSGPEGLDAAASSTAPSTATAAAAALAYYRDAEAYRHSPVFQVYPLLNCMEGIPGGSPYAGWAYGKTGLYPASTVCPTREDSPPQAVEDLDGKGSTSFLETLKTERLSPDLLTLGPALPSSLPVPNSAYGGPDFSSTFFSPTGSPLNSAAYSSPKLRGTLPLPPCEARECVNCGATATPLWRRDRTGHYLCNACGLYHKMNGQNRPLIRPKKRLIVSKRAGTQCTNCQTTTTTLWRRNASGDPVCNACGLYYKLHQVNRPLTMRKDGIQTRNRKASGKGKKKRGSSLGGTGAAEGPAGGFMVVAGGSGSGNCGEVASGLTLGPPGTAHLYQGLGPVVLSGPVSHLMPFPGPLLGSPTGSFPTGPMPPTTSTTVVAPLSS
UniProt Q8N6T7: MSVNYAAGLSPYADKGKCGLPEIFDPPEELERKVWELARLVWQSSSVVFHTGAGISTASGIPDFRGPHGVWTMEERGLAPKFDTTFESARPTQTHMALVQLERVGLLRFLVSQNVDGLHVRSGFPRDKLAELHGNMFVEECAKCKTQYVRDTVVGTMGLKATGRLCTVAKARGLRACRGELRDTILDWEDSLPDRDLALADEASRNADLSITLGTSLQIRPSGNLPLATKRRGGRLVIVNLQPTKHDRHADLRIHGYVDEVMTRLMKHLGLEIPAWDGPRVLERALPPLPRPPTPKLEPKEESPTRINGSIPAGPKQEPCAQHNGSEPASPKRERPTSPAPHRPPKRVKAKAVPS
UniProt Q09472: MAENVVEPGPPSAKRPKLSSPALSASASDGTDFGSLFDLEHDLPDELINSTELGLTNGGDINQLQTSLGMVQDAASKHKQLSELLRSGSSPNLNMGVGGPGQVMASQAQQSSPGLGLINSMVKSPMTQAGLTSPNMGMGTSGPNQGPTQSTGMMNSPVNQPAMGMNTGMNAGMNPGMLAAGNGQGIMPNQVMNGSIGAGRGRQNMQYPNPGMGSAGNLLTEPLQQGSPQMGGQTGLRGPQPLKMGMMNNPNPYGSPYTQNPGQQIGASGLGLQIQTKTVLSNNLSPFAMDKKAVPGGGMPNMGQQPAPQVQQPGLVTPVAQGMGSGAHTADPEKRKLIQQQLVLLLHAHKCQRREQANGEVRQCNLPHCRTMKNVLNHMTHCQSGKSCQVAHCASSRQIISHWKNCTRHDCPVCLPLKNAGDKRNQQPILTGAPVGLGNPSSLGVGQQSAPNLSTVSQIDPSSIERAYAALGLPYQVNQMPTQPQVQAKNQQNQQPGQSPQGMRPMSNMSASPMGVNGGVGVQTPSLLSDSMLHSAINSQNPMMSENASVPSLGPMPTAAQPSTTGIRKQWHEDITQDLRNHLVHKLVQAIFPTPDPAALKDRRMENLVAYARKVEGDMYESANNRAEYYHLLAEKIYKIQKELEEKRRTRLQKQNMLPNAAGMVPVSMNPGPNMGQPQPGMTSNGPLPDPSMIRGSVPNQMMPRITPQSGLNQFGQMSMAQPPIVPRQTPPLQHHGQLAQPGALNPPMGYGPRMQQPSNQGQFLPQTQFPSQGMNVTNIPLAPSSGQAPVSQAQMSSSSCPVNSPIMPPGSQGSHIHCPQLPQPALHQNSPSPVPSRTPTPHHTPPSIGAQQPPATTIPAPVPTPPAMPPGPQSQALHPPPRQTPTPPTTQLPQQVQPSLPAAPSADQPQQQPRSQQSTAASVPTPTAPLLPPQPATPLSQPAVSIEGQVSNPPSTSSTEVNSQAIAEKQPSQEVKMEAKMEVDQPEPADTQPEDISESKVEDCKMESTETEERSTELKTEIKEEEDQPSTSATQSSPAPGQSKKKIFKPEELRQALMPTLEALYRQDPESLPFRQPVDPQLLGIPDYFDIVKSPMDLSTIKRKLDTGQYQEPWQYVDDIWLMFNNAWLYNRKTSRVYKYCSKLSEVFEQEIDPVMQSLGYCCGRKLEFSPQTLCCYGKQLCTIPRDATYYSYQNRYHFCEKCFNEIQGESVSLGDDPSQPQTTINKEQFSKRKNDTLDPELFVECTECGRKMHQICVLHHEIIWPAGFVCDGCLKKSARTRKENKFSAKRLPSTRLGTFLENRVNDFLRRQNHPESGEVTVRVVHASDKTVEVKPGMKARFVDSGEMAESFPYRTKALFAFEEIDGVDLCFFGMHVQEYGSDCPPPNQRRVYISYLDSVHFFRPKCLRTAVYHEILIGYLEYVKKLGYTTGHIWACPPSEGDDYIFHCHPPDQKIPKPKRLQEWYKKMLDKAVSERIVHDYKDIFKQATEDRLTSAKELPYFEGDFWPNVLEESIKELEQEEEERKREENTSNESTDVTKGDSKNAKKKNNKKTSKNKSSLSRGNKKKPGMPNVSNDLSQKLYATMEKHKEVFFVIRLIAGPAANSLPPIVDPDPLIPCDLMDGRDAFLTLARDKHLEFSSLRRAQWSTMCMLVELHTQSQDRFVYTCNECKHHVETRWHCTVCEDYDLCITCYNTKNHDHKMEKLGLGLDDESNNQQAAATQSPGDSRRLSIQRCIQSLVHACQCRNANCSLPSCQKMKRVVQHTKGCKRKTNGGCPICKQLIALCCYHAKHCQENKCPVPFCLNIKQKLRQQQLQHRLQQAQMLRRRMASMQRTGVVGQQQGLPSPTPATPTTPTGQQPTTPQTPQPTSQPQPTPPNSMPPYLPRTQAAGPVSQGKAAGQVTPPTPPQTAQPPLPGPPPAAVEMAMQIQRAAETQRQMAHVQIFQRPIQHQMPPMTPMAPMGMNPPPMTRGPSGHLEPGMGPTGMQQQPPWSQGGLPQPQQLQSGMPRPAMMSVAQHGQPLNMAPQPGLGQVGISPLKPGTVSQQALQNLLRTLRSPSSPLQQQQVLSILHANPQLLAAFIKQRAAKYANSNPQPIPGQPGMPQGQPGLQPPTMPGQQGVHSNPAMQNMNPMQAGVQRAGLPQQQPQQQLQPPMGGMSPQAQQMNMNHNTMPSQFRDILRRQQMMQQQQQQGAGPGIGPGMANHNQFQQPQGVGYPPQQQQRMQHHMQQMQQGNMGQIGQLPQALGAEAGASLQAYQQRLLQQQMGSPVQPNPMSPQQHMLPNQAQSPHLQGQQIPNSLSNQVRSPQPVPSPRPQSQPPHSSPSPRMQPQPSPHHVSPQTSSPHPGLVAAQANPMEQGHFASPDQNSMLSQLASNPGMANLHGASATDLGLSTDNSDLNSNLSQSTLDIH

Target: GATA-1 in AML14.3D10 cells (UniProt P15976)
Test: co-IP; AML14.3D10 human eosinophil cell line, differentiated with 0.4 mM butyric acid, cells of day 7

Row | binding | Substance
1 | binds | Sirt6 in AML14.3D10 cells (from UniProt Q8N6T7 1-355) (enzyme)
2 | binds | p300 in AML14.3D10 cells (from UniProt Q09472 1-2414) (enzyme)
